# Percent effect of library compounds

Sequences of proteins named here, by UniProt entry; tags and fusion partners are left off. Residues count along the entry.
UniProt Q4DA54, 1-478: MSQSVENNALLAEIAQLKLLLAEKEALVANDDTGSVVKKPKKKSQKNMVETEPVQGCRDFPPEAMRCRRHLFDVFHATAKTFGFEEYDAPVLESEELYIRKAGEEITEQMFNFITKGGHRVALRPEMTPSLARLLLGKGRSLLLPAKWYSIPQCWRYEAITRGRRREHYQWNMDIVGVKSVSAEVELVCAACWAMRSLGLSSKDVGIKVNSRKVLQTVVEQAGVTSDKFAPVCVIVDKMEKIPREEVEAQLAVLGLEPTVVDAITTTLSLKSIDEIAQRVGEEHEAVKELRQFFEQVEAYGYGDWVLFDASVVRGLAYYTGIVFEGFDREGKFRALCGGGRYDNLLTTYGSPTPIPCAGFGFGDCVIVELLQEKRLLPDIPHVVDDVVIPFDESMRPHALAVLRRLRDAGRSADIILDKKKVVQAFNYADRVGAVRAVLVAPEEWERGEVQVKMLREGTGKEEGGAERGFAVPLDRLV

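Histidine-tRNA ligase, Trypanosoma cruzi CL Brener (UniProt Q4DA54). Enzyme assay of histidyl-tRNA synthetase; the read-out is not stated. Tested at 30 µM. Direction is inferred from retests: higher values go with stronger inhibition. About 69,000 compounds were tested under these conditions; 0.045% (about 31) showed 50% or more at least once.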

Values are the deposited “Percent Effect”, in %. The controls that fix the scale are not given in the record; negative values are as filed. The compounds are a random part of those screened.

compound | Percent Effect
O=C1NCC2(CCCN(Cc3cccnc3)C2)Oc2ccccc21 (stereo not drawn) | 10.64%
CCN(CC)S(=O)(=O)c1csc(C(=O)N2CCC(C(N)=O)CC2)c1 | 3.933%
CN1CCOC(CNCc2nc(-c3ccoc3)no2)C1 (stereo not drawn) | 2.041%
c1ccc(C2CCN(c3cncc(-n4cccn4)n3)CC2)cc1 | 13.37%
Cc1nc(C2CN(Cc3ccc(F)cc3Br)CCO2)no1 (stereo not drawn) | -1.026%
CC1CCCN(C(=O)CCNS(=O)(=O)c2cccnc2)C1 (stereo not drawn) | 4.04%
Cc1ccoc1C(=O)N1CCO[C@H]2[C@H](OCC3CCOCC3)CC[C@@H]21 | -3.784%
C[C@@H]1CN(C(=O)CCc2cnn(C)c2)CC[C@@]1(O)C1CCOCC1 | -2.703%
COCCN(Cc1cccnc1)c1nc(C)nc2oc(C)nc12 | -0.5618%
CCCn1c(C)c(CC(=O)NCCOC)c2c1CC(C)(C)CC2=O | 7.623%
Cc1nc(N)sc1C(=O)N1CCCC(c2nccn2CCCN(C)C)C1 (stereo not drawn) | -0.8264%
Cc1cccc(CN2C[C@@H]3OCCN(S(=O)(=O)N(C)C)[C@@H]3C2)n1 | 0%
Cc1ccc(N2CCO[C@H]3CN(Cc4cccs4)C[C@H]32)nn1 | 10.92%
Cc1cc(C)n(CC2CCCN2C(=O)c2ccc3c(c2)OCO3)n1 (stereo not drawn) | 1.88%
O=C([C@H]1C[C@H]2OCC[C@H]2N(Cc2ccccc2F)C1)N1CCCCO1 | 16.67%
COC(=O)NCCC(=O)NC(C)Cc1cccc(Br)c1 (stereo not drawn) | 0.5917%
CO[C@H]1CN(C(C)C)C[C@@H]1NC(=O)Nc1cccc(SC)c1 | -2.146%
Cc1occc1C(=O)N1C[C@@H](C(=O)N2CCCCO2)C[C@H]2OCC[C@H]21 | 1.961%
CCN1CCC2(CN(C(C)=O)CC23CCN(CC2CC2)CC3)C1=O (stereo not drawn) | -2.913%
O=C(COc1ccc(Cl)cc1)N1CCOCC1c1ncon1 (stereo not drawn) | 0.8721%
CSc1ccc(-c2nc(CN3CCNCC3C)c(C)o2)cc1 (stereo not drawn) | 3.017%
Cc1c(C(=O)NC2(C#N)CCCC2)nnn1-c1ccccc1Cl | 5.82%
Cc1ccc(CN2CCCn3nnc(COCCN(C)C)c3C2)s1 | 8.163%
Cc1csc2c(=O)n(C(C)Cc3cccnc3)cnc12 (stereo not drawn) | 3.59%
CCCn1c(N2CCCCC2)nc2c(C)nn(C)c2c1=O | 4.348%
CC(O)CN1CCC(CN(C)CC(=O)NC2CCOCC2)CC1 (stereo not drawn) | -24.86%
Cc1nnc(CSCc2ccc(OCC(F)(F)F)nc2)o1 | 9.052%
CCCc1nc(C)cc(N2CCC3(CCC(=O)N(CC4CC4)C3)CC2)n1 | 7.627%
COc1cccc2cc(CNC(=O)N3CCC(C(N)=O)CC3)oc12 | 5.143%
Cc1sc(C(=O)NS(C)(=O)=O)cc1-c1ccc(F)cc1 | 3.867%
CCc1ccc(-c2nn3c(nc2=O)-c2ccccc2NC3C(=O)O)cc1 (stereo not drawn) | 7.182%
O=C(N1CCOCC1)[C@@]12CCO[C@@H]1CCN(C1CCC1)C2 | -2.439%
Cc1cc(C)n(CCCN(C)c2cc(N(C)C)ncn2)n1 | 3.478%
O=C(c1nc(=O)[nH][nH]1)N1CCCN(CC2CCCCC2)CC1 | 13.79%
COCc1ccc(C(=O)N2CCOCC2c2ccc(C)o2)cc1 (stereo not drawn) | 15%
Cc1cc(NC(=O)C(C)Nc2cccc(COCc3ccco3)c2)no1 (stereo not drawn) | 14%
c1cc(C2CCN(Cc3nc(-c4ccsc4)no3)CC2)[nH]n1 | -1.031%
CC(NC(=O)N1CCC2(C1)OCCO2)c1ccc(F)cc1Cl (stereo not drawn) | 4.459%
O=C(NCCc1cccs1)C1(N2CCCCC2)Cc2ccccc2C1 | 2.762%
O=c1cc(CN(Cc2ccco2)C2CC2)nc2ccc(Br)cn12 | 1.136%
Cc1nn(CCN2CCSCC2)cc1CNCc1ccccn1 | 2.146%
CC1(C)CN(CC(=O)NCc2ccccc2F)C[C@]1(C)O | 3.867%
CC(=O)NCCNC(=O)c1cc(COc2ccccc2)[nH]n1 | 4.464%
CCOc1ncccc1C(=O)N1CCN(C)C2(CCN(C)CC2)C1 | 1.911%
Cc1cc(-c2cnc(N3CCCC3)nc2-c2ccc(C)s2)on1 | 0%
CCSc1ccc(NC(=O)NC(C)c2c(C)noc2C)cn1 (stereo not drawn) | 12.99%
O=C(Nc1nnn[nH]1)c1cc(-c2ccc(Br)s2)n[nH]1 | -3.627%
CN1CCNC(Cc2ccc(-c3cccs3)cc2)C1=O (stereo not drawn) | 2.985%
N#Cc1ccc(CNC(=O)NC2CCCN(c3ncccn3)C2)cc1 (stereo not drawn) | 7.5%
CS(=O)(=O)N1CCC2(CC1)CC(NCc1ccco1)c1ccccc12 (stereo not drawn) | -14.57%

Some entries from above, unchanged:

compound,Percent Effect
Cc1cc(-c2cnc(N3CCCC3)nc2-c2ccc(C)s2)on1,0%
N#Cc1ccc(CNC(=O)NC2CCCN(c3ncccn3)C2)cc1 (stereo not drawn),7.5%
c1cc(C2CCN(Cc3nc(-c4ccsc4)no3)CC2)[nH]n1,-1.031%
Cc1cc(NC(=O)C(C)Nc2cccc(COCc3ccco3)c2)no1 (stereo not drawn),14%
O=C([C@H]1C[C@H]2OCC[C@H]2N(Cc2ccccc2F)C1)N1CCCCO1,16.67%

The values are deposited in ChEMBL (CHEMBL3988442, “University of Dundee, Small-Polar-MMV Screening Library” (2021)).